Measured values from patent US20250082573A1, “COMPOSITIONS AND METHODS FOR DELIVERY OF OCULAR THERAPEUTICS” (The Board of Trustees of the Leland Stanford Junior …, priority 2023, published 2025).
For at least one compound, name, drawing or mass did not settle the structure.

Experiment: VH mimic depot formation and model cargo release assay
Format: physicochemical
Conditions: cargo in PNP hydrogel vs PBS bolus, 50 μL into VH mimic; fluorescein 0.25 mg mL^−1, albumin-FITC 10 mg mL^−1
Method: This example describes PNP-2-10 hydrogel depot formation and model cargo release in a VH mimic. The PNP-2-10 hydrogel was prepared as described in Example 1. The present technology is directed to ITV administration of PNP hydrogels in the sensitive environment of the eye. To better visualize and understand how the PNP hydrogels would behave in the VH, depot formation and model cargo release were analyzed in a VH mimic composed of agar and hyaluronic acid (HA). […]
To prepare the VH mimic release assay, 50 μL of PNP hydrogel or PBS loaded with either 0.25 mg mL^−1 fluorescein or 10 mg mL^−1 albumin-FITC (MW˜66 kDa, mol FITC:mol albumin=14) was injected through a 30-gauge needle into a cuvette containing a VH mimic. […] Dye release was quantified using ImageJ software. Images were separated into red, blue, and green channels and the intensity in the green channel within a region inside the hydrogel depot or initial PBS injection site was measured for each time point, denoted Itn. […] The fraction of dye remaining in the gel depot at the final time point was determined by comparing the change in background intensity from times t0 to tplateau for PBS and gel samples:
The percent of dye retained in the gel or PBS injection site at each time point tn was determined by normalizing the intensity as
where tf is the final time point measured and C is a constant defined by […]

O=C1OC2(c3ccc(O)cc3Oc3cc(O)ccc32)c2ccccc21 [fluorescein]
increase of effective half-life of retention compared to the control PBS bolus: over 7.5 fold
